Reference: the supplement of paper PMC10849652
The list shows a part of the results.

Sequences of proteins named here, by UniProt entry; tags and fusion partners are left off. A change or cut given only in a name is not applied to a line headed by its entry.
UniProt Q9NS87: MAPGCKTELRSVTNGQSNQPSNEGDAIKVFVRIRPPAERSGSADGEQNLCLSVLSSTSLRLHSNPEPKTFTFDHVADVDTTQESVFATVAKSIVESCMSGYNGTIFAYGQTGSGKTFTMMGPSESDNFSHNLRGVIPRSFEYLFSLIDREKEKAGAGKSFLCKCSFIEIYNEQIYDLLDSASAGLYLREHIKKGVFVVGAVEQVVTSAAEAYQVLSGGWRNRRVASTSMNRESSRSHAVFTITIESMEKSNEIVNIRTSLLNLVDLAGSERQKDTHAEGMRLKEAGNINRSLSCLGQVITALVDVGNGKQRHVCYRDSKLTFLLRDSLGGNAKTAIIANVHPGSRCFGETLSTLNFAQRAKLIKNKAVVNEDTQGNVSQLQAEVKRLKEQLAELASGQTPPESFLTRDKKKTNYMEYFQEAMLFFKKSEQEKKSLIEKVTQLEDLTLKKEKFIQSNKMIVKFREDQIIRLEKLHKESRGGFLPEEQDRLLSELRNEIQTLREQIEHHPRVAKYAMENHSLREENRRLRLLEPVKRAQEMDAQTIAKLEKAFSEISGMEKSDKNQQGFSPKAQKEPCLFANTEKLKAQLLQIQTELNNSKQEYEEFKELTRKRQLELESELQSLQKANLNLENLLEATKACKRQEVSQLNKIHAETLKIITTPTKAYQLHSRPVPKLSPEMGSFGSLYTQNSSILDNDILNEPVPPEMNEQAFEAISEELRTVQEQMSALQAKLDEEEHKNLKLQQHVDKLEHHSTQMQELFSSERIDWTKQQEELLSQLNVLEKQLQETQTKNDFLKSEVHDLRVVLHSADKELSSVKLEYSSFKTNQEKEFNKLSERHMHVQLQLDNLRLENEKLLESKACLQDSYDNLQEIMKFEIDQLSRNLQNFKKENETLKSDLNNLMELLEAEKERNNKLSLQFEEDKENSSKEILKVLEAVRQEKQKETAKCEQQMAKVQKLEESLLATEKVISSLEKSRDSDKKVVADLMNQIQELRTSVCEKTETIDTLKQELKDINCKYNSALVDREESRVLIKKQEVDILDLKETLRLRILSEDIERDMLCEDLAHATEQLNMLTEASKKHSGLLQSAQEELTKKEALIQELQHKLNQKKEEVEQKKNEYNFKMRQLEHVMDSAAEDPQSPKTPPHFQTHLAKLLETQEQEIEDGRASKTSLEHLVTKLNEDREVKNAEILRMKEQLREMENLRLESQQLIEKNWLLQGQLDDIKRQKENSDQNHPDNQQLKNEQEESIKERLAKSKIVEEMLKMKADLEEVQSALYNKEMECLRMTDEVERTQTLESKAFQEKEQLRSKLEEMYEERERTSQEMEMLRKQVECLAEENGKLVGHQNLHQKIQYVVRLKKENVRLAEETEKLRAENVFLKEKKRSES
UniProt Q9NVR0: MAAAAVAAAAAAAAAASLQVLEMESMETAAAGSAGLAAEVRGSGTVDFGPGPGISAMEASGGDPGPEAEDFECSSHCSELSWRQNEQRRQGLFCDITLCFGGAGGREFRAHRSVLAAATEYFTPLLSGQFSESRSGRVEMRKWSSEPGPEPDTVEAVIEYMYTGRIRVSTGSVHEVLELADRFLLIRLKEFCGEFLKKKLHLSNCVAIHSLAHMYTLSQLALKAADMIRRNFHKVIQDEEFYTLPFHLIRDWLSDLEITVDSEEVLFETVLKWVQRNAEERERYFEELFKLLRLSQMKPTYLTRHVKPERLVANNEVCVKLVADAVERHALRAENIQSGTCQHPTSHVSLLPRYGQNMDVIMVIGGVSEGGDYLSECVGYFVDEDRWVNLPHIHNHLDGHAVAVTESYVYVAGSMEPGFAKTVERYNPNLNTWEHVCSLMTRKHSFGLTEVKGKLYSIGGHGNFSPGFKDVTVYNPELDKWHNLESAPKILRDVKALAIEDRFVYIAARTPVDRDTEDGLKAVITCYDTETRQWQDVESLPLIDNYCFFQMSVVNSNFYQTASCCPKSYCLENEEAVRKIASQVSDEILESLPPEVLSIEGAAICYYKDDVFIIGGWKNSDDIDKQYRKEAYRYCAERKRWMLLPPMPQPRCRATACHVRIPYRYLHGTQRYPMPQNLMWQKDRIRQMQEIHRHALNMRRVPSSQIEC
UniProt O00180: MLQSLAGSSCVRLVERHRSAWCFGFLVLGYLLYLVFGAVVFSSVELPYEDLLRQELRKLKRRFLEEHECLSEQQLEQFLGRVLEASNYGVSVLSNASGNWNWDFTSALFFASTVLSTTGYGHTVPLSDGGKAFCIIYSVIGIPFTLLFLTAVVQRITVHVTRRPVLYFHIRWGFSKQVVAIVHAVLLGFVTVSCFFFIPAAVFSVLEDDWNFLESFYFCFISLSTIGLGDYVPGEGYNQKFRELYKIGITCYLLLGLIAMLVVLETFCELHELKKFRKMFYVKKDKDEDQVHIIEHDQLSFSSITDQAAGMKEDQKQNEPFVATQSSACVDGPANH
UniProt Q15652: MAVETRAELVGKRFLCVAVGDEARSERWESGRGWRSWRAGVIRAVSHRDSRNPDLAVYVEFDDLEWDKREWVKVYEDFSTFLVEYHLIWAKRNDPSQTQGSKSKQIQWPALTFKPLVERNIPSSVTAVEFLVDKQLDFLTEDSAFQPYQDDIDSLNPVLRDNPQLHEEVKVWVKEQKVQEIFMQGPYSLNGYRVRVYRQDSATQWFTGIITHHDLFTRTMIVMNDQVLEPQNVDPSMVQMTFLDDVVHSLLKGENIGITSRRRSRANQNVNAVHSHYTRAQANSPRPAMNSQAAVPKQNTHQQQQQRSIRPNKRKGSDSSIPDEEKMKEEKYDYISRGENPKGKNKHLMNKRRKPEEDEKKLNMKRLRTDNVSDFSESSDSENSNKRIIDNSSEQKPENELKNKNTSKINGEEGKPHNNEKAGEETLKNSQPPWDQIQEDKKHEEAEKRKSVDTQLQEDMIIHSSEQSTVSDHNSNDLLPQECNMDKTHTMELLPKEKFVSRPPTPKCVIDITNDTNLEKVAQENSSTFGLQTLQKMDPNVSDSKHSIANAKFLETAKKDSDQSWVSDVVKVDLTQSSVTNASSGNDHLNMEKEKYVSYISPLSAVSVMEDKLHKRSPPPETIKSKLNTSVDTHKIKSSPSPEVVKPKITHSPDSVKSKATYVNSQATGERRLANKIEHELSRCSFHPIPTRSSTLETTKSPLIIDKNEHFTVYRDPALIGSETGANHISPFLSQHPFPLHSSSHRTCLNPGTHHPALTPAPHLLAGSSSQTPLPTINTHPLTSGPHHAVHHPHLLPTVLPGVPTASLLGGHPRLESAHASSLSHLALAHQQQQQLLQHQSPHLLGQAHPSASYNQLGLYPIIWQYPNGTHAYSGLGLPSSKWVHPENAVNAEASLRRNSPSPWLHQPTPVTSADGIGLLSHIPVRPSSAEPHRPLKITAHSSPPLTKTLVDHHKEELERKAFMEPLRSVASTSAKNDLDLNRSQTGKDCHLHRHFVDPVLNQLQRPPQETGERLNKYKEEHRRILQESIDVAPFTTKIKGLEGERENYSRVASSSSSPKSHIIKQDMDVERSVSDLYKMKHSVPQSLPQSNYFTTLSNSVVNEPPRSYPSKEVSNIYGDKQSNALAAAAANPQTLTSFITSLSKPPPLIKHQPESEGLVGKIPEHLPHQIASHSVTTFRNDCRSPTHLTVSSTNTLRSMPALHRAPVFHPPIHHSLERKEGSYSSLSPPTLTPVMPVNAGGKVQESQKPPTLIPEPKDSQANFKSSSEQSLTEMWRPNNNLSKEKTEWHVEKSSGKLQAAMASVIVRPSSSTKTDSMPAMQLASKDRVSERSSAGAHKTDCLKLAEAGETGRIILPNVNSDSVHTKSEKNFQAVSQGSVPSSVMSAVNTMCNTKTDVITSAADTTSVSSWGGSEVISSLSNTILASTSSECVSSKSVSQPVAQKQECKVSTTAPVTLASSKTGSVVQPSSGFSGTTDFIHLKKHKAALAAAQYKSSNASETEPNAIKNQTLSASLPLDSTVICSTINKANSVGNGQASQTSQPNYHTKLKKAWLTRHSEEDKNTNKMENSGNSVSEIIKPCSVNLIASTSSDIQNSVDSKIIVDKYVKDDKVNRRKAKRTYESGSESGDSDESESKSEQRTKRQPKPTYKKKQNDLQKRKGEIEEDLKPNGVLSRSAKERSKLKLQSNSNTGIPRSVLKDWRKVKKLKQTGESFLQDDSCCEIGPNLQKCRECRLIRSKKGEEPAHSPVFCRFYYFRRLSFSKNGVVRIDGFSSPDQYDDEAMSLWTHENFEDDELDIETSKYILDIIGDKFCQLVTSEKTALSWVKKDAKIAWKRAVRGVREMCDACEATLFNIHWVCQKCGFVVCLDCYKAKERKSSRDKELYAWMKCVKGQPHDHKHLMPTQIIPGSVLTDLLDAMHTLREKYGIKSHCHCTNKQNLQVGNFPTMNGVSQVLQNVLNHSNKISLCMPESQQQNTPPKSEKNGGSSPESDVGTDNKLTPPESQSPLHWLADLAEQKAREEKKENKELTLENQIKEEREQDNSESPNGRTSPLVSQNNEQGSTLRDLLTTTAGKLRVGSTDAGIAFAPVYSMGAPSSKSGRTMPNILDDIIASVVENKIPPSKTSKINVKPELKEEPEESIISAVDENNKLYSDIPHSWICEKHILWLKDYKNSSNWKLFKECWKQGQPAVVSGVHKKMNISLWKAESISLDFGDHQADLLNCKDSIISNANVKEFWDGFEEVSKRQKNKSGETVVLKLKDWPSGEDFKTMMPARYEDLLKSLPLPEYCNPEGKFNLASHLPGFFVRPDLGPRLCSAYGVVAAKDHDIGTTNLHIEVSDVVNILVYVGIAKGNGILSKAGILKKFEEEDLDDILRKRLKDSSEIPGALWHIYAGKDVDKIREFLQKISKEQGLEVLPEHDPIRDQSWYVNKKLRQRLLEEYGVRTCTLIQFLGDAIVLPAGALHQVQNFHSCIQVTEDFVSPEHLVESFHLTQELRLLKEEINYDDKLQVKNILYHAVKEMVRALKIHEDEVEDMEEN
UniProt Q9Y448: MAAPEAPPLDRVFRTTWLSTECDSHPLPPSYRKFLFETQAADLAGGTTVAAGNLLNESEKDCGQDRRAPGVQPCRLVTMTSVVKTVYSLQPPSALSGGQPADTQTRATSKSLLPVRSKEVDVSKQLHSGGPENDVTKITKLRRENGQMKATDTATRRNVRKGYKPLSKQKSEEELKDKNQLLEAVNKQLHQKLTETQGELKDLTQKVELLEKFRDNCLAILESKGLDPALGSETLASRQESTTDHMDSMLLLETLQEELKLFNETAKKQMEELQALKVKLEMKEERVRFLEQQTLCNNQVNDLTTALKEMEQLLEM
UniProt Q9Y6Y0: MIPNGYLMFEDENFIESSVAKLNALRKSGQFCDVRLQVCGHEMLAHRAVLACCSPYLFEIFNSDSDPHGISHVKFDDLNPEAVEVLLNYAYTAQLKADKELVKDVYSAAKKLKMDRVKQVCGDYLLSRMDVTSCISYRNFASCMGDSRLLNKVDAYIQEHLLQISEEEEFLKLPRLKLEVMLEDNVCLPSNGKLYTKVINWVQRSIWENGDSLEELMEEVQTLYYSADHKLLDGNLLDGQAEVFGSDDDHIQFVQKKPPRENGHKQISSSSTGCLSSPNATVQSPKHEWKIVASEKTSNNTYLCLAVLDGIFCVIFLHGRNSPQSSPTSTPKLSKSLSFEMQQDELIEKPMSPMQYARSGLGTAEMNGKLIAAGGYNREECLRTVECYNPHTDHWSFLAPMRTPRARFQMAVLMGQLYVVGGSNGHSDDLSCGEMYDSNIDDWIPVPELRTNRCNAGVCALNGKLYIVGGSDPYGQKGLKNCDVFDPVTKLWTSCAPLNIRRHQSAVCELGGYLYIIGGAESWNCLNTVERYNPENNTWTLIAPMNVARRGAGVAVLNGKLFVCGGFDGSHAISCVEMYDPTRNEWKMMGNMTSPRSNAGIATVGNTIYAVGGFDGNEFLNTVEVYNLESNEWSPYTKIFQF
UniProt Q96A73: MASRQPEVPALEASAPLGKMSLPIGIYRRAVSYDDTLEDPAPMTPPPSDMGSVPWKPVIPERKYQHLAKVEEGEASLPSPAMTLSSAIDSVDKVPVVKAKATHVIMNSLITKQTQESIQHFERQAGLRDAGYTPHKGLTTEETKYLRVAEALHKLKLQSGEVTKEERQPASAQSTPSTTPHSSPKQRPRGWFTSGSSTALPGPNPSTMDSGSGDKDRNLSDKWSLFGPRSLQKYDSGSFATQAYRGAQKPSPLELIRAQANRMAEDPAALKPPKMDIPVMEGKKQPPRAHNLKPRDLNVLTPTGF
UniProt Q06136: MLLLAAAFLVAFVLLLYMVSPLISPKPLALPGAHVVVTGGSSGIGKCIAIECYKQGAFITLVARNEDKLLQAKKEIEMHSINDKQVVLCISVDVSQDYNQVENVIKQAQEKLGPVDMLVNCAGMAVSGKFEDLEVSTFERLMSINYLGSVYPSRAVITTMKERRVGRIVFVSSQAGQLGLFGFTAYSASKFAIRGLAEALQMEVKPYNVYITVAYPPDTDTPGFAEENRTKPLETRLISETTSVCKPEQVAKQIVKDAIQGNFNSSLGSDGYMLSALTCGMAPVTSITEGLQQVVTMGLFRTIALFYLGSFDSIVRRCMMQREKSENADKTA

Compound: c1cn2cc(-c3ccc4cn[nH]c4c3)nc(Nc3ccc(N4CCOCC4)cc3)c2n1 [entospletinib]
Assay: log2 fold change, soluble protein after heating vs DMSO (PISA); higher = thermal stabilisation; K562 cells, 10 uM, 30 min; active = over 0.2 and 3.5 SD of the protein, either way, in both replicates (recomputed)
Summary of the method: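 K562 cells at 2×10^6 cells/mL were given 10 μM compound for 30 min. Aliquots then went through 3 min of heating across 48°C-58°C, were pooled, and were extracted in PBS with 0.5% NP-40 at 4°C, and the supernatant after 21,000xg for 90 min was quantified by TMTpro 16plex LC-MS/MS with channel sums equalised. Thermal stability relative to control samples, from duplicates, is given as log2 fold change.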

log2 fold change, inactive:
KMT2D isoform 3 (UniProt O14686) 0
KDM8 isoform 3 (UniProt Q8N371) -0.005
KIAA0100 (UniProt Q14667) 0.027
KCNN4 (UniProt O15554) -0.036
KIF15 (UniProt Q9NS87) 0.262
KBTBD8 (UniProt Q8NFY9) 0.013
ITSN2 (UniProt Q9NZM3) 0.003
KLHL11 (UniProt Q9NVR0) -0.085
KHSRP (UniProt Q92945) -0.002
KCTD15 (UniProt Q96SI1) -0.027
KPTN (UniProt Q9Y664) 0.088
KCNK1 (UniProt O00180) -0.138
KIAA1755 (UniProt Q5JYT7) 0.01
KIFC3 isoform 6 (UniProt Q9BVG8) 0.2
JUN (UniProt P05412) 0.071
KIF14 (UniProt Q15058) 0.294
KDM5C (UniProt P41229) -0.093
KATNBL1 (UniProt Q9H079) 0.274
JMJD1C (UniProt Q15652) -0.05
KIAA1143 (UniProt Q96AT1) 0.056
KNSTRN (UniProt Q9Y448) 0.073
IVNS1ABP (UniProt Q9Y6Y0) 0.108
KIAA1191 (UniProt Q96A73) 0.025
KIAA2013 isoform 2 (UniProt Q8IYS2) -0.07
KIF4A (UniProt O95239) -0.025
KDSR (UniProt Q06136) -0.006
JPT1 (UniProt Q9UK76) 0.01
KAT6B (UniProt Q8WYB5) 0.008

No new results follow: entries from further up.
log2 fold change, inactive:
KATNBL1 (UniProt Q9H079) 0.274
JMJD1C (UniProt Q15652) -0.05
